The whole screen tested about 320,000 compounds, of which about 2,100 (0.66%) were called active. Calls come from the whole dose curve; as a rule, active = well fitted inhibition curve with a large enough effect in the signal ratio, with a control signal flat (not every such curve was filed as active); inconclusive = small, poorly fitted or top-dose-only effect, or effect the other way, or a change in a side signal; inactive = flat fitted curve, though single readings scatter; the % refers to the signal ratio. The inconclusive results got no clear call from the source. Potencies beside an inconclusive call are fits to weak or partial responses and may not hold up.
Assay: qHTS Assay for Lipid Storage Modulators in Drosophila S3 Cells
Conditions: BODIPY lipid droplet fluorescence, 18-24 h, cells fed with added oleic acid; lipid storage change, negative = inhibition: at 46.1 µM (top of the series) unless noted
In short: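 Laser-scanning cytometry quantifies lipid droplet accumulation (500–530 nm total intensity; droplet/cell object ratio) in oleic acid-fed (400 uM added) Drosophila S3 cells treated with a concentration series. 20 uM Triacsin C defined 100% inhibition.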
% is set by controls: 0 for no effect and ±100 for the full control effect; potency is the fitted concentration of half-maximal effect.

Potency, inconclusive:
COc1ccc(CNC(=O)CN(C(=O)c2snc(C(N)=O)c2N)c2ccccc2F)cc1 6.51 µM [activator, single point]
O=C(CCCCCNC(=O)c1ccccc1)C[N+](=O)[O-] 0.0046 µM [falling, full curve, poor fit]
CCOc1cc(C(=S)N2CCOCC2)cc(Br)c1OS(=O)(=O)c1ccccc1 20.6 µM [falling, single point]
C=CCNc1nc(Nc2ccc(OC)cc2OC)nc(OCC)n1 0.82 µM [activator, single point]
C/C(=N\NC(=O)c1ccc2c(c1)OCO2)c1ccc(NC(=O)CCCC(=O)O)cc1 29.1 µM [activator, single point]
COc1ccc(CN2CCN(C(C)C(=O)NC(C)c3ccc(F)cc3)CC2)cc1F (stereo not given) 0.164 µM [activator, full curve, poor fit]
COc1ccc(NC(=O)/C=C/c2cccc(F)c2)cn1 8.2 µM [activator, partial curve]
CCn1c(SCc2ccccc2)nnc1-c1ccc(S(=O)(=O)N2CCCCC2)cc1 8.2 µM [falling, partial curve]
Cc1nccn1Cc1cccc2ccccc12 0.259 µM [falling, full curve, poor fit]

Lipid storage change, negative = inhibition, inconclusive:
CCOc1ccccc1NC(=O)COC(=O)Cc1ccsc1 15.3%
CCCN(CCC)S(=O)(=O)c1ccc(N2CCCC2=O)c([N+](=O)[O-])c1 35.8% [activator]
CCC(Oc1ccccc1)C(=O)OCC(=O)N(CC)c1c(N)n(Cc2ccccc2)c(=O)[nH]c1=O (stereo not given) 27.7%
COc1ccc(CN(C)C(=O)c2sccc2-c2ccccc2)c(OC)c1 -30.7% [at 0.00295 µM]
Cc1ccccc1CC1(CO)CCCN(Cc2ccn[nH]2)C1 (stereo not given) -14.5%
Cc1cccc(C)c1NC(=O)NC1CCc2ccccc21 (stereo not given) 1.99%
CC(CC(=O)O)CC(=O)Nc1nncs1 (stereo not given) -26.9%
C/C(=N\NC(=O)c1c(-c2ccccc2Cl)noc1C)c1cccc(NC(=O)C(C)C)c1 -0.749%
CCSc1nnc(CCNS(=O)(=O)c2ccc(C(C)=O)cc2)n1C 131%
O=C(CNS(=O)(=O)c1ccc(Br)s1)NCC1COc2ccccc2O1 (stereo not given) 29.4%
NS(=O)(=O)c1ccc(NC(=S)NC(=O)/C=C/c2cccs2)cc1 24.3%

A portion taken from the entries so far:
Lipid storage change, negative = inhibition, inconclusive:
CCOc1ccccc1NC(=O)COC(=O)Cc1ccsc1 15.3%
CCCN(CCC)S(=O)(=O)c1ccc(N2CCCC2=O)c([N+](=O)[O-])c1 35.8% [activator]
CCC(Oc1ccccc1)C(=O)OCC(=O)N(CC)c1c(N)n(Cc2ccccc2)c(=O)[nH]c1=O (stereo not given) 27.7%
COc1ccc(CN(C)C(=O)c2sccc2-c2ccccc2)c(OC)c1 -30.7% [at 0.00295 µM]

Reference: PubChem BioAssay AID2685 (National Center for Advancing Translational Sciences (NCATS), 2010)
